Experimental data from US20250277039A1 (PURDUE RESEARCH FOUNDATION, published 2025).
These are yes or no findings as the source states them, for the method shown. Some binding calls cover weakened binding; strength is not graded here. Where a sequence is shown, tags or fusion partners need not be part of it. Values belong to the binder of their own block, whether it stands above or below them.

Experiments:
[1] = target: T1, His-tagged canine PD-L1 protein (6X His tagged extracellular domain of cPD-L1) (canine) (UniProt E2RKZ5); experiment: plate assay: His-tagged PD-L1 on Ni-NTA 96-well plate, antibody, HRP anti-canine IgG secondary, OD450
T1 sequence: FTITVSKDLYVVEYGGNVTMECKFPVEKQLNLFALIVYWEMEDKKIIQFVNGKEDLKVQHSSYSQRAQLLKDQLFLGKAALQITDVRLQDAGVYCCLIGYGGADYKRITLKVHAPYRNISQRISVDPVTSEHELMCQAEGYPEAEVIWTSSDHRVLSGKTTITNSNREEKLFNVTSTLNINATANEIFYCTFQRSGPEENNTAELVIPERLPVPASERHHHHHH

[2] = target: T1, His-tagged canine PD-L1 protein (6X His tagged extracellular domain of cPD-L1) (canine); experiment: ELISA-based plate assay, bound antibody as OD450
[3] = target: T1, His-tagged canine PD-L1 protein (6X His tagged extracellular domain of cPD-L1) (canine); experiment: Octet biolayer interferometry, His-tagged cPD-L1 loaded on the NTA biosensor
[4] = target: T1, His-tagged canine PD-L1 protein (6X His tagged extracellular domain of cPD-L1) (canine); experiment: ELISA-based cell-free binding assay with the 6X His tagged cPD-L1 extracellular domain (FIG. 7A)
[5] = target: T1, His-tagged canine PD-L1 protein (6X His tagged extracellular domain of cPD-L1) (canine); experiment: cell-free ELISA-based binding assay on His-tagged extracellular domain of cPD-L1, bound antibody as OD450
[6] = target: T1, His-tagged canine PD-L1 protein (6X His tagged extracellular domain of cPD-L1) (canine); experiment: cell-free blockade assay: canine PD-L1-His on Ni-NTA plate; blocked ligand PD-1-Fc (cPD-1-hFc), HRP anti-human IgG Fc secondary, OD450
[7] = target: T2, canine PD-L1 (Flag-cPD-L1) expressed on BT549 cells (canine) (UniProt E2RKZ5); experiment: summary sentence on the in vitro and in vivo validation of mAb 12C and mAb 3C
T2 sequence: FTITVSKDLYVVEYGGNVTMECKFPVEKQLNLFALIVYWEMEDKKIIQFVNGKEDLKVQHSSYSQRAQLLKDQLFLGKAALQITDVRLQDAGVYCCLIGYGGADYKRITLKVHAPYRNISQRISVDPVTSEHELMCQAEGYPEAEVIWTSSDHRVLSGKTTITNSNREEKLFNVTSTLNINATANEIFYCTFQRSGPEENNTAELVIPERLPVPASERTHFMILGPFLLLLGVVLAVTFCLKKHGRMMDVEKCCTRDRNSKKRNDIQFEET

[8] = target: T1, His-tagged canine PD-L1 protein (6X His tagged extracellular domain of cPD-L1) (canine); experiment: blocking plate assay: cPD-L1-His on Ni-NTA plate; blocked ligands cPD-1-hFc and mPD-1-hFc; one 12C concentration, not given

binding [4]: binds
binding [5]: binds
binding [6]: binds
B3: cPD-L1 A12C10E4 chimeric antibody (antibody)
heavy: QVQLKQSGPGLVQPSQSLSITCTISGFSLTSFGVHWVRQSPGKGLEWLGVIWSGGSTDYNAAFTSRLSINKDNSKSQVFFKMNSLQADDTAIYYCARGGGPDWYFDVWGTGTTVTVSSASTTAPSVFPLAPSCGSTSGSTVALACLVSGYFPEPVTVSWNSGSLTSGVHTFPSVLQSSGLYSLSSMVTVPSSRWPSETFTCNVAHPASKTKVDKPVPKRENGRVPRPPDCPKCPAPEMLGGPSVFIFPPKPKDTLLIARTPEVTCVVVDLDPEDPEVQISWFVDGKQMQTAKTQPREEQFNGTYRVVSVLPIGHQDWLKGKQFTCKVNNKALPSPIERTISKARGQAHQPSVYVLPPSREELSKNTVSLTCLIKDFFPPDIDVEWQSNGQQEPESKYRTTPPQLDEDGSYFLYSKLSVDKSRWQRGDTFICAVMHEALHNHYTQKSLSHSPGK
light: DIVLTQSPASLAVSLGQRATISCRASESVEYYGTSLMQWYQQKPGQPPKLLIFAASNVKSGVPARFSGSGSGTDFSLNIHPVEEDDIAMYFCQQSGKVPHTFGGGTKLEIKRSMADAQPAVYLFQPSPDQLHTGSASVVCLLNSFYPKDINVKWKVDGVIQDTGIQESVTEQDKDSTYSLSSTLTMSSTEYLSHELYSCEITHKSLPSTLIKSFQRSECQRVD
notes: also called mAb A12C; cPD-L1 A12C10E4 cIgG

binding [7]: binds
binding [8]: binds
B4: murine monoclonal antibody cPD-L1 12C10E4 from the hybridoma (antibody, mouse IgG1, V domains shown)
VH: QVQLKQSGPGLVQPSQSLSITCTISGFSLTSFGVHWVRQSPGKGLEWLGVIWSGGSTDYNAAFTSRLSINKDNSKSQVFFKMNSLQADDTAIYYCARGGGPDWYFDVWGTGTTVTVSS
VL: DIVLTQSPASLAVSLGQRATISCRASESVEYYGTSLMQWYQQKPGQPPKLLIFAASNVKSGVPARFSGSGSGTDFSLNIHPVEEDDIAMYFCQQSGKVPHTFGGGTKLEIK
notes: Hybridoma antibody from A/J mice immunized with the cPD-L1 extracellular domain-human Fc; also called mAb 12C; murine 12C antibody

The next lines start with the binder.

B1: cPD-L1 3C chimeric antibody clone (3C8D3 variable domains, canine constant domains) (antibody, V domains shown)
VH: EVQLQQSGPELVKPGASVKMSCKASGYTFTDYVLHWVRQTNGKSLEWIGEINPSNGDTYYNQKFKGKATLTVDTSSSTAYMQLTTLTSEDSAVYYCARSDYSNYVGFAYWGQGTLVTVSA
VL: DIVMTQSHKFMSTSVGDRVSITCKVSQDVGTAVAWYQQKPGQCPKRLIYWTSTRHTGVPDRFTGSGSGTDFTLTISNVQSEDLVDYFCQQYSSYPLTFGGGTKLELKR
notes: also called cPD-L1 3C8D3
binding [1]: binds

B2: cPD-L1 12C10E4 chimeric antibody (mouse variable domains, canine IgG2 / canine kappa constant domains) (antibody)
heavy: B3 heavy
light: DIVLTQSPASLAVSLGQRATISCRASESVEYYGTSLMQWYQQKPGQPPKLLIFAASNVKSGVPARFSGSGSGTDFSLNIHPVEEDDIAMYFCQQSGKVPHTFGGGTKLEIKRSMEIKRTDAQPAVYLFQPSPDQLHTGSASVVCLLNSFYPKDINVKWKVDGVIQDTGIQESVTEQDKDSTYSLSSTLTMSSTEYLSHELYSCEITHKSLPSTLIKSFQRSECQRVD
notes: Expressed in ExpiCHO-S cells from pTRIOZ-cIgG2-12C10E4; also called 12C chimeric antibody; mAb 12C
binding [2]: binds
binding [3]: binds
binding [4]: binds
binding [1]: binds
binding [5]: binds
binding [6]: binds
